# Measurements published in the supplement of paper PMC8426693.
# The other results are listed elsewhere or left out.
# Key:
# Experiment in all cases: NMR binding call after quantification (hit when 2 of 3 NMR criteria are met) (binary (1 = binding, 0 = not binding)); higher = binding
# Conditions in all cases: RNA concentration 10 µM; fragment concentration 200 µM; 293 K
# SARS-CoV-2 5'-UTR RNA = tested on: SARS-CoV-2 5'-UTR RNA
# SARS-CoV-2 5_SL1 RNA = tested on: SARS-CoV-2 5_SL1 RNA
# SARS-CoV-2 5_SL1234 RNA = tested on: SARS-CoV-2 5_SL1234 RNA
# SARS-CoV-2 5_SL2+3 RNA = tested on: SARS-CoV-2 5_SL2+3 RNA
# SARS-CoV-2 5_SL4 RNA = tested on: SARS-CoV-2 5_SL4 RNA
# SARS-CoV-2 5_SL5 RNA = tested on: SARS-CoV-2 5_SL5 RNA
# SARS-CoV-2 5_SL5a RNA = tested on: SARS-CoV-2 5_SL5a RNA
# SARS-CoV-2 5_SL5b+c RNA = tested on: SARS-CoV-2 5_SL5b+c RNA
# SARS-CoV-2 5_SL5stem RNA = tested on: SARS-CoV-2 5_SL5stem RNA
# SARS-CoV-2 5_SL6 RNA = tested on: SARS-CoV-2 5_SL6 RNA
Structure (SMILES),NMR binding call (SARS-CoV-2 5'-UTR RNA),NMR binding call (SARS-CoV-2 5_SL1 RNA),NMR binding call (SARS-CoV-2 5_SL1234 RNA),NMR binding call (SARS-CoV-2 5_SL2+3 RNA),NMR binding call (SARS-CoV-2 5_SL4 RNA),NMR binding call (SARS-CoV-2 5_SL5 RNA),NMR binding call (SARS-CoV-2 5_SL5a RNA),NMR binding call (SARS-CoV-2 5_SL5b+c RNA),NMR binding call (SARS-CoV-2 5_SL5stem RNA),NMR binding call (SARS-CoV-2 5_SL6 RNA)
CCc1nc(C2CCCN2)no1 (stereo not given),0,0,0,0,0,0,0,0,0,0
c1nc(N2CCC2)c2[nH]cnc2n1,1,0,0,0,0,0,0,0,0,0
Cc1ccc(C)c(OC(=O)c2ccncc2)c1,0,0,0,0,0,0,0,0,0,0
CC1COCCN1Cc1ccccc1F (stereo not given),0,0,0,0,0,0,0,0,0,0
CC(=O)NC(C)c1nnc2ccccn12 (stereo not given),0,0,0,0,0,0,0,0,0,0
Cc1nccn1CC(C)O (stereo not given),0,0,0,0,0,0,0,0,0,0
COc1ccc(CNC(=O)CC#N)cc1,0,0,0,0,0,0,0,0,0,0
CN(C(=O)C1CCNC1)c1ccccc1.Cl (stereo not given),0,0,0,0,0,0,0,0,0,0
Cc1ccccc1CNc1nnnn1C,0,0,0,0,0,0,0,0,0,0
CNC1CCCN(c2ccccc2)C1=O (stereo not given),0,0,0,0,0,0,0,0,0,0
O=C(NCCc1ccc(F)cc1)c1ccco1,0,0,0,0,0,0,0,0,0,0
CC1CN(S(C)(=O)=O)CCC1N (stereo not given),0,0,0,0,0,0,0,0,0,0
CS(=O)(=O)N1CCC(O)CC1,0,0,0,0,0,0,0,0,0,0
CC(N)c1cn(-c2ccccc2)nn1.Cl (stereo not given),0,0,0,0,0,0,0,0,0,0
Cc1ccc(-c2nc(N)sc2C)cc1C,0,0,0,0,0,0,0,0,0,0
OCc1ccccc1N1CCOCC1,0,0,0,0,0,0,0,0,0,0
CCOC(=O)CN1CCS(=O)(=O)CC1,0,0,0,0,0,0,0,0,0,0
Cc1csc(NCC2CCCO2)n1 (stereo not given),0,0,0,0,0,0,0,0,0,0
CS(=O)(=O)N1CCN(Cc2ccco2)CC1.O=C(O)C(=O)O,0,0,0,0,0,0,0,0,0,0
Fc1ccc(NC2CCOCC2)nc1,0,0,0,0,0,0,0,0,0,0
CC1CCN(C(=O)c2cc3ccccc3o2)CC1,0,0,0,0,0,0,0,0,0,0
CC(C(N)=O)N1CCN(S(C)(=O)=O)CC1 (stereo not given),0,0,0,0,0,0,0,0,0,0
CCN(CCO)c1ccc(N)cc1,0,0,0,0,0,0,0,0,0,0
Fc1ccc(Cn2cnc3ccccc32)cc1,0,0,0,0,0,0,0,0,0,0
CN(CC(=O)O)C(=O)c1ccccn1,0,0,0,0,0,0,0,0,0,0
CN(C)C(=O)C1(C(=O)O)CC1,0,0,0,0,0,0,0,0,0,0

# Structural class: the entries above containing sulfur
Structure (SMILES),NMR binding call (SARS-CoV-2 5'-UTR RNA),NMR binding call (SARS-CoV-2 5_SL1 RNA),NMR binding call (SARS-CoV-2 5_SL1234 RNA),NMR binding call (SARS-CoV-2 5_SL2+3 RNA),NMR binding call (SARS-CoV-2 5_SL4 RNA),NMR binding call (SARS-CoV-2 5_SL5 RNA),NMR binding call (SARS-CoV-2 5_SL5a RNA),NMR binding call (SARS-CoV-2 5_SL5b+c RNA),NMR binding call (SARS-CoV-2 5_SL5stem RNA),NMR binding call (SARS-CoV-2 5_SL6 RNA)
CC1CN(S(C)(=O)=O)CCC1N (stereo not given),0,0,0,0,0,0,0,0,0,0
CS(=O)(=O)N1CCC(O)CC1,0,0,0,0,0,0,0,0,0,0
Cc1ccc(-c2nc(N)sc2C)cc1C,0,0,0,0,0,0,0,0,0,0
CCOC(=O)CN1CCS(=O)(=O)CC1,0,0,0,0,0,0,0,0,0,0
Cc1csc(NCC2CCCO2)n1 (stereo not given),0,0,0,0,0,0,0,0,0,0
CS(=O)(=O)N1CCN(Cc2ccco2)CC1.O=C(O)C(=O)O,0,0,0,0,0,0,0,0,0,0
CC(C(N)=O)N1CCN(S(C)(=O)=O)CC1 (stereo not given),0,0,0,0,0,0,0,0,0,0

# Next part.

Structure (SMILES),NMR binding call (SARS-CoV-2 5'-UTR RNA),NMR binding call (SARS-CoV-2 5_SL1 RNA),NMR binding call (SARS-CoV-2 5_SL1234 RNA),NMR binding call (SARS-CoV-2 5_SL2+3 RNA),NMR binding call (SARS-CoV-2 5_SL4 RNA),NMR binding call (SARS-CoV-2 5_SL5 RNA),NMR binding call (SARS-CoV-2 5_SL5a RNA),NMR binding call (SARS-CoV-2 5_SL5b+c RNA),NMR binding call (SARS-CoV-2 5_SL5stem RNA),NMR binding call (SARS-CoV-2 5_SL6 RNA)
CNC(=O)NCc1c(F)cccc1Cl,0,0,0,0,0,0,0,0,0,0
Cl.NC1CCCN(C(=O)CCC(F)(F)F)C1 (stereo not given),0,0,0,0,0,0,0,0,0,0
CC(CO)N(C)c1ncccc1F (stereo not given),0,0,0,0,0,0,0,0,0,0
CC(=O)c1ccc(N2CCC(C(N)=O)CC2)cc1,0,0,0,0,0,0,0,0,0,0
Cl.Cl.Cl.FC(F)n1ccnc1CN1CCNCC1,0,0,0,0,0,0,0,0,0,0
CN1CCN(CCN)CC1(C)C,0,0,0,0,0,0,0,0,0,0
Clc1snnc1CN1CCOCC1,0,0,0,0,0,0,0,0,0,0
CC(C)NC(=O)c1ccc2ccccc2n1,0,0,0,0,0,0,0,0,0,0
CC(=O)N1CC(O)CC1C(=O)O (stereo not given),0,0,0,0,0,0,0,0,0,0
CN1CCCC(OC(=O)c2ccco2)C1 (stereo not given),0,0,0,0,0,0,0,0,0,0
CC(=O)Nc1ccccc1OCc1ccccc1,0,0,0,0,0,0,0,0,0,0
COc1ccc(CNC2CCCC2)cc1,0,0,0,0,0,0,0,0,0,0
Nc1cccc(OCc2ccccc2)c1,0,0,0,0,0,0,0,0,0,0
CS(=O)(=O)NC1CCNCC1,0,0,0,0,0,0,0,0,0,0
Cl.O=C(O)CN1CCC(c2ccccc2)CC1,0,0,0,0,0,0,0,0,0,0
CC(=O)Nc1ccc(OC(=O)N2CCCC2)cc1,0,0,0,0,0,0,0,0,0,0
Oc1ncc(NCCc2ccccc2)c(O)n1,0,0,0,0,0,0,0,0,0,0
Cc1ccc(CNC(=O)Cc2cccs2)cc1,0,0,0,0,0,0,0,0,0,0
COC(=O)N1CCN(c2ccc(F)cc2)CC1,0,0,0,0,0,0,0,0,0,0
CNC1(C(N)=O)CCCC1,0,0,0,0,0,0,0,0,0,0
c1cc(-c2noc(C3CCCCC3)n2)ccn1,0,0,0,0,0,0,0,0,0,0
CCOc1cccc(C(=O)Nc2nnn(C)n2)c1,0,0,0,0,0,0,0,0,0,0
NC(=O)c1c[nH]c(C2CC2)n1,0,0,0,0,0,0,0,0,0,0
CC(C)NC(=O)c1cc[nH]n1,0,0,0,0,0,0,0,0,0,0
CNS(=O)(=O)c1ccccc1Cl,0,0,0,0,0,0,0,0,0,0
CN(C)Cc1ccc(C(=O)O)o1.Cl,0,0,0,0,0,0,0,0,0,0
